This is one part of the list. The data scatter; read single values as rough.

The chains behind the UniProt entries cited, without tags or fusion partners. Where a name states a change or a piece, a line headed by the entry shows the natural chain unless it says otherwise. Residues count along the entry.
UniProt Q5VYS8: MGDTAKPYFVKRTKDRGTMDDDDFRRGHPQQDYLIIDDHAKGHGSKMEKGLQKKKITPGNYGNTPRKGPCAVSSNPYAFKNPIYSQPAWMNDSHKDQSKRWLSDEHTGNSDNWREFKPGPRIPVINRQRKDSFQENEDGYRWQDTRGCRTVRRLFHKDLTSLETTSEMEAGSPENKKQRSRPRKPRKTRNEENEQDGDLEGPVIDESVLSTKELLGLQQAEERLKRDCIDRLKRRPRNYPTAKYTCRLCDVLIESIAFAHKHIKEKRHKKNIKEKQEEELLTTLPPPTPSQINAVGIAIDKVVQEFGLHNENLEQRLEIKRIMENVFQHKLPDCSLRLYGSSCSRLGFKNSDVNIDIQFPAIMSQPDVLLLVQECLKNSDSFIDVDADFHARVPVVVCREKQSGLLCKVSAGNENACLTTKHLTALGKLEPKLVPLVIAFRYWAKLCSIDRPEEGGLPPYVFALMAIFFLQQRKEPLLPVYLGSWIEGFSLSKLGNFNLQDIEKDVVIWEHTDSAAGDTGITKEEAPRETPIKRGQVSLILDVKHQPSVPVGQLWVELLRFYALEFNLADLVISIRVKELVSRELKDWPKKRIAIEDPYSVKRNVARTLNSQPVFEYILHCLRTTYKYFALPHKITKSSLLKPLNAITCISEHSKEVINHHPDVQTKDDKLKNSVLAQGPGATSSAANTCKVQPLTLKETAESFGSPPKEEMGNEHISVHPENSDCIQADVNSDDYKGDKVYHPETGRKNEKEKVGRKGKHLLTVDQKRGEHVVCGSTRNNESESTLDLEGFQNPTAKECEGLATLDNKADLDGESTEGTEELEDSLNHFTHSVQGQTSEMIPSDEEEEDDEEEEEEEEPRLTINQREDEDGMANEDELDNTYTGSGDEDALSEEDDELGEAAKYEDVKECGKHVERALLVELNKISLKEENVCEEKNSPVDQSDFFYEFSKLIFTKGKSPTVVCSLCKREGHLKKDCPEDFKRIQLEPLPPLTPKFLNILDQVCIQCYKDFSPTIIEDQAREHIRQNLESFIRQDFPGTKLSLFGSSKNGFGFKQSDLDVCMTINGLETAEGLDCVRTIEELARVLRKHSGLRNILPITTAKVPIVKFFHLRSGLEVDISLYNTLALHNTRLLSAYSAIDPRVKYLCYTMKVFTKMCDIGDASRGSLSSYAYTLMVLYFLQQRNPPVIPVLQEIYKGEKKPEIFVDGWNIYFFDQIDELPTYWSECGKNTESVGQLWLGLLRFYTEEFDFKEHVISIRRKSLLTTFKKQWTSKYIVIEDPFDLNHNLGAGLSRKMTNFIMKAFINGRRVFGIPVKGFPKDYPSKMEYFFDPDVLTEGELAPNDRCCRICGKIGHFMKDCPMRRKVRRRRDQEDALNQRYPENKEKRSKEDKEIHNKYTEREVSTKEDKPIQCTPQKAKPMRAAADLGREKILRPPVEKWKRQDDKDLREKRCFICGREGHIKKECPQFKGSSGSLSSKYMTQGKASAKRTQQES
UniProt Q5TAX3: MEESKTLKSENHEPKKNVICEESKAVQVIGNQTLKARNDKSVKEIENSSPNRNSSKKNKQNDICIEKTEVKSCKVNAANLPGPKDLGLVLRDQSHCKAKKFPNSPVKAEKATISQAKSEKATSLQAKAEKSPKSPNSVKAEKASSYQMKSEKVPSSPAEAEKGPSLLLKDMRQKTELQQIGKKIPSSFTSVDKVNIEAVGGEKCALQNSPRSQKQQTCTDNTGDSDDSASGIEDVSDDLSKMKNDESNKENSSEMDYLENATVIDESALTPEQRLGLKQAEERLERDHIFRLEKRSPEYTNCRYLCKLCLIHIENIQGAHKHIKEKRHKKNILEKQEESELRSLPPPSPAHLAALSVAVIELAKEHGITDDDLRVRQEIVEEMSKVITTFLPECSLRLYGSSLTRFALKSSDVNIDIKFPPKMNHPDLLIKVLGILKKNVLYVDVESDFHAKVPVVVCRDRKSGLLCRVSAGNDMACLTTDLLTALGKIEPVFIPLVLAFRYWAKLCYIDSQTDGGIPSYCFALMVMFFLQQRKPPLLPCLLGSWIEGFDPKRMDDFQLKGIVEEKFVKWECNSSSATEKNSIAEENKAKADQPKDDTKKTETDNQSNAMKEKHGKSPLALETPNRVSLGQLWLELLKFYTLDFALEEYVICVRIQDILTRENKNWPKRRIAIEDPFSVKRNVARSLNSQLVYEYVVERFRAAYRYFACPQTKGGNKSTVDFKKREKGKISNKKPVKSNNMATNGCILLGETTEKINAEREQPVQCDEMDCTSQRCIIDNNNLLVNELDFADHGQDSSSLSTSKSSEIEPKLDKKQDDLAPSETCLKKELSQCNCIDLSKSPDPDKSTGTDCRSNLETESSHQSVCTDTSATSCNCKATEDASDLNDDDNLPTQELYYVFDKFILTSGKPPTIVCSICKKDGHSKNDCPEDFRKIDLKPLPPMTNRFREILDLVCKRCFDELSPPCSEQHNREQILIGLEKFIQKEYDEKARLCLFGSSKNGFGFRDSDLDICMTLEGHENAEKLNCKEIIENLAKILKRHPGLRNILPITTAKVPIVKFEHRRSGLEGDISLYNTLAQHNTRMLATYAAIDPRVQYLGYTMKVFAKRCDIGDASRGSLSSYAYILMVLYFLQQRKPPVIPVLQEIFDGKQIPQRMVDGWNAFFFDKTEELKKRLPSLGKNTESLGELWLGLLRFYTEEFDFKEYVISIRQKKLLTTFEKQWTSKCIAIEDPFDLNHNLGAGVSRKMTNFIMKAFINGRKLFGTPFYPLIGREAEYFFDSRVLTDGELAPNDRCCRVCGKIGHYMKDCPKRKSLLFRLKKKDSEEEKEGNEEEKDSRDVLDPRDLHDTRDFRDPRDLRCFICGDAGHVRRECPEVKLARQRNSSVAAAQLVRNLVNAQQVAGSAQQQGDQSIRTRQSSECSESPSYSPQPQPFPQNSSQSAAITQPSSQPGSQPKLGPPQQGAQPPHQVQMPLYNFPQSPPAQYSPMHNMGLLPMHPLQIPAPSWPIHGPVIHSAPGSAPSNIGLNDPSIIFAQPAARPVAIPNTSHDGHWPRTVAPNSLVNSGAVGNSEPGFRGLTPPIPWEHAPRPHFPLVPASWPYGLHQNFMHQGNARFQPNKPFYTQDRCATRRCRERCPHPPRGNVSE
UniProt Q6IBS0: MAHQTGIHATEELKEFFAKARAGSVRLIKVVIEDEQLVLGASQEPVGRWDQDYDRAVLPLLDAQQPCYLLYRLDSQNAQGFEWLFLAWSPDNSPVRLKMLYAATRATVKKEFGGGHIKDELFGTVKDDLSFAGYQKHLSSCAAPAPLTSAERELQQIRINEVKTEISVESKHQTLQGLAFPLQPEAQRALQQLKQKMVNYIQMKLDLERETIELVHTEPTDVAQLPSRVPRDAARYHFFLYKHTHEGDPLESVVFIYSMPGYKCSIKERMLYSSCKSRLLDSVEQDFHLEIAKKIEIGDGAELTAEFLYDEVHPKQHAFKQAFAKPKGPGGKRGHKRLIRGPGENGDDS
UniProt Q9Y4A5, 2104-2124: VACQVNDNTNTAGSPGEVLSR
UniProt Q6NXR4: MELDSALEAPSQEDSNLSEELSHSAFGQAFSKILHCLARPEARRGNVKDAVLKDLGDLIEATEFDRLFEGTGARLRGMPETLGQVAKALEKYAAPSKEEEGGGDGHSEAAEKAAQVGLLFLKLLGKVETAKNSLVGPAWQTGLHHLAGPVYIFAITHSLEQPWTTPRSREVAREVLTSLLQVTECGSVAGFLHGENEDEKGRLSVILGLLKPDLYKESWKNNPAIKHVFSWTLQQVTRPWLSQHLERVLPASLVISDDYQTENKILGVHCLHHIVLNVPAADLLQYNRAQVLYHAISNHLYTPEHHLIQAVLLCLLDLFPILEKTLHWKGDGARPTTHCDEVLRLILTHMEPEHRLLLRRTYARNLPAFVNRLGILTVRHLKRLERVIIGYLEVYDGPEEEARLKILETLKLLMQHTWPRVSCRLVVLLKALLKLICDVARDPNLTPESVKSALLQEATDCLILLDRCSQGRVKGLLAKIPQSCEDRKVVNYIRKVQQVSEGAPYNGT
UniProt Q96AY4: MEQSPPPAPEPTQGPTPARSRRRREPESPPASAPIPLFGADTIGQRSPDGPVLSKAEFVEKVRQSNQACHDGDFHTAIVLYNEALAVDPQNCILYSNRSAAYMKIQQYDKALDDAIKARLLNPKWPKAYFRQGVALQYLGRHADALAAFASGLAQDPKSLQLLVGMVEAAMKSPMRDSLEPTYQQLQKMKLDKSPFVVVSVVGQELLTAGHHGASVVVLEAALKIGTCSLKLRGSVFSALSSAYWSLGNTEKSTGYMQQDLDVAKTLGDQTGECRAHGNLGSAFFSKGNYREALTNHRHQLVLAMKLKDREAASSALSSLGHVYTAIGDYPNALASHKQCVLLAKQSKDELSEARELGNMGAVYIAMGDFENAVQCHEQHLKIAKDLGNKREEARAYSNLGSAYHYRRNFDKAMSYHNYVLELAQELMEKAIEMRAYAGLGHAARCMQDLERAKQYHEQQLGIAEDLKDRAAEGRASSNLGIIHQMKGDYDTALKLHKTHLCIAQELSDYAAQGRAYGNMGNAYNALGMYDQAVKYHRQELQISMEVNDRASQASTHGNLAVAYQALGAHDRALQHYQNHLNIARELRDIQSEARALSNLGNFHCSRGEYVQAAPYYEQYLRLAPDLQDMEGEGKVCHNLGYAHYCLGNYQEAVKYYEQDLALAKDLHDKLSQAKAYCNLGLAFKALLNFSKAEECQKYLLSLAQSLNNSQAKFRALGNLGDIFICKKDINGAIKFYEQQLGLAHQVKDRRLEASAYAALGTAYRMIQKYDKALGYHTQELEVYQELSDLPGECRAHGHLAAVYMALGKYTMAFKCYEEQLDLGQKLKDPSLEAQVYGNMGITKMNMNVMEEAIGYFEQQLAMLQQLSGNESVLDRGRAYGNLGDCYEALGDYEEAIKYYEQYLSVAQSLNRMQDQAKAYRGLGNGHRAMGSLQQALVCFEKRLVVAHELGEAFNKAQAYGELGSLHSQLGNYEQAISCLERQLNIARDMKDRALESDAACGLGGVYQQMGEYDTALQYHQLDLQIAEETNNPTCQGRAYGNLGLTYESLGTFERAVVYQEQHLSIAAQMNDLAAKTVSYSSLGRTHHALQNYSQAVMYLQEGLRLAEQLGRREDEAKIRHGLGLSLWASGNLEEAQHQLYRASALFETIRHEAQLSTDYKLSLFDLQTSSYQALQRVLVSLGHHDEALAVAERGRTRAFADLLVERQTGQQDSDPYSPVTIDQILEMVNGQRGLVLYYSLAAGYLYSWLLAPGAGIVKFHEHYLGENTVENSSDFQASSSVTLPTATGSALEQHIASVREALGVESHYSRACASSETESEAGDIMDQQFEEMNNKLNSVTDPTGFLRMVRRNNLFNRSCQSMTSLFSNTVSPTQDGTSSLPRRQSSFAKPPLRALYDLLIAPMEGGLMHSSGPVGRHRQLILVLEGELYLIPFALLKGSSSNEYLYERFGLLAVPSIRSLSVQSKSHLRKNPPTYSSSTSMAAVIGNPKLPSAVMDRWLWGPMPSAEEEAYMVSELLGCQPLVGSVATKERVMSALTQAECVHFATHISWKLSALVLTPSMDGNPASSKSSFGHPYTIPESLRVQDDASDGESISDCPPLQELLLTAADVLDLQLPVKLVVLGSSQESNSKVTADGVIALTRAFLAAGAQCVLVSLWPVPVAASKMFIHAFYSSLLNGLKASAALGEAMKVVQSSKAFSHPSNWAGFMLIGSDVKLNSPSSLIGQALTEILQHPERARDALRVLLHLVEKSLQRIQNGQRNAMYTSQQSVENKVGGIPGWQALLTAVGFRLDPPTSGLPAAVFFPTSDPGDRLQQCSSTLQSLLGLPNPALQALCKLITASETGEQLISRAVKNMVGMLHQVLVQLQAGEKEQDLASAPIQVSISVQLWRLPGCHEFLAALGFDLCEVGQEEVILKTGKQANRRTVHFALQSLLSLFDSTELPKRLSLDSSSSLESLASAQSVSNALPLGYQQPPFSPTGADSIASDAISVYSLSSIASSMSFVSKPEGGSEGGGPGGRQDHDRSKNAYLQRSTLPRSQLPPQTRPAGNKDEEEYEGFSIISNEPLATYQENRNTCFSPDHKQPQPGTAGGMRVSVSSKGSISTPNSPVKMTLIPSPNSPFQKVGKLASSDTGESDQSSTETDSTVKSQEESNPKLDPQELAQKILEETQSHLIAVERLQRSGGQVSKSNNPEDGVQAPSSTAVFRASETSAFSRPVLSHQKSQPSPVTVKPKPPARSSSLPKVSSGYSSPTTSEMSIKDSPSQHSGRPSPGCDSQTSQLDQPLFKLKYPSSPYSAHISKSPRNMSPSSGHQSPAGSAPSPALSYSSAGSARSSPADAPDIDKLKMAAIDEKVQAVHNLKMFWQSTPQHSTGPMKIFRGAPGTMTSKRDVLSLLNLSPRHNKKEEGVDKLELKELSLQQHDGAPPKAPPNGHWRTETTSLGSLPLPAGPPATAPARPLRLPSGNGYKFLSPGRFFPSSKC

Compound in one assay: ClCC(=O)N[C@@H]1CCCc2ccccc12
Put plainly: log2 mean competition ratio of IA-DTB cysteine labelling (DMSO/compound) (log2 ratio); higher = stronger cysteine engagement by compound. The note with it: 50 µM; treatment time: 4 h; cell line lysate: HEK293T. How it is done:
(§1)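 IA-DTB competitive cysteine chemoproteomics in HEK293T RIPA lysate. Lysates were treated with compound 29 or 30 at 50 or 200 µM for 4 h, then IA-DTB (500 µM, 1 h), trypsin-digested, NeutrAvidin-enriched and analysed by diaPASEF. Competition ratio = intensity DMSO / intensity compound (n=4 treated, n=64 DMSO); binding: mean log2 CR ≥ 1 and p ≤ 0.05 plus QC filters. Target is the cysteine site.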
In the case of TUT7 C343 (UniProt Q5VYS8), the “log2 mean competition ratio” value is 0.042.

As for UBN2 C515 (UniProt Q6ZU65), the “log2 mean competition ratio” value was 0.0264.

Consider TTC39C C517 (UniProt Q8N584), for which the “log2 mean competition ratio” value was 0.0406.

For the target TRMT11 C5 (UniProt Q7Z4G4), the “log2 mean competition ratio” value came to 0.256.

With TUT4 C746 (UniProt Q5TAX3), the “log2 mean competition ratio” value is -0.24.

Turning to UACA C1258 (UniProt Q9BZF9), the “log2 mean competition ratio” value is -0.5.

In the case of TUT4 C20 (UniProt Q5TAX3), the “log2 mean competition ratio” value is -0.0759.

For the target TWF2 C275 (UniProt Q6IBS0), the “log2 mean competition ratio” value was 0.267.

In the case of UBE3C C158 (UniProt Q15386), the “log2 mean competition ratio” value was -0.181.

Turning to “TSPY9;TSPY2;TSPY3;TSPY4;TSPY8;TSPY10;TSPY1 C283;(C277);(C277);(C283);(C277);(C277);(C277)”, the “log2 mean competition ratio” value is 0.0428.

On to UBE2O C370, for which the “log2 mean competition ratio” value is 0.0383.

TTK C295 (UniProt P33981): the “log2 mean competition ratio” value was found to be 0.0306.

Turning to TXNRD2 C54 (UniProt Q9NNW7), the “log2 mean competition ratio” value was -0.369.

With TTC7A C337 (UniProt Q9ULT0), the “log2 mean competition ratio” value turned out to be 0.314.

As for TXNDC9 C94 (UniProt O14530), the “log2 mean competition ratio” value stood at 0.0999.

Consider TTC37 C1031 (UniProt Q6PGP7), for which the “log2 mean competition ratio” value was 0.136.

Regarding TRRAP C420 (UniProt Q9Y4A5), the “log2 mean competition ratio” value amounted to 0.37.

Regarding TRRAP C2106 (UniProt Q9Y4A5), the “log2 mean competition ratio” value is 0.0508.

Turning to TXNDC16 C821 (UniProt Q9P2K2), the “log2 mean competition ratio” value is -0.0721.

For the target TTI2 C484 (UniProt Q6NXR4), the “log2 mean competition ratio” value was -0.0532.

As to UBR4 C2554 (UniProt Q5T4S7), the “log2 mean competition ratio” value was 0.204.

On to TRMT1L C730 (UniProt Q7Z2T5), for which the “log2 mean competition ratio” value is -0.279.

Regarding TRRAP C546 (UniProt Q9Y4A5), the “log2 mean competition ratio” value is -0.239.

As for UBN1 C711 (UniProt Q9NPG3), the “log2 mean competition ratio” value was -0.0926.

TRRAP C2876 (UniProt Q9Y4A5): the “log2 mean competition ratio” value is 0.0163.

In the case of TTC37 C715 (UniProt Q6PGP7), the “log2 mean competition ratio” value was 0.00139.

With TTC4 C174 (UniProt O95801), the “log2 mean competition ratio” value was found to be 0.321.

As for TTC30A C93, the “log2 mean competition ratio” value turned out to be 0.0088.

For the target TRMT44 C53 (UniProt Q8IYL2), the “log2 mean competition ratio” value was 0.0534.

On to UBR1 C251 (UniProt Q8IWV7), for which the “log2 mean competition ratio” value was -0.451.

For the target TUBGCP6 C598 (UniProt Q96RT7), the “log2 mean competition ratio” value is -0.223.

Consider TTC28 C2077 (UniProt Q96AY4), for which the “log2 mean competition ratio” value was 0.0362.

On to TRMT44 C194 (UniProt Q8IYL2), for which the “log2 mean competition ratio” value was determined as 0.299.

For the target TRMT1 C614 (UniProt Q9NXH9), the “log2 mean competition ratio” value was -0.0414.

TUT7 C775 (UniProt Q5VYS8): the “log2 mean competition ratio” value was -0.0261.

As to TUBB4B C354 (UniProt P68371), the “log2 mean competition ratio” value was determined as 0.394.

For TTC5 C29 (UniProt Q8N0Z6), the “log2 mean competition ratio” value is 0.145.

Staying with this assay, now noted: 200 µM; treatment time: 4 h; cell line lysate: HEK293T.
TUT7 C343 (UniProt Q5VYS8): the “log2 mean competition ratio” value came to 0.106.

With UBN2 C515 (UniProt Q6ZU65), the “log2 mean competition ratio” value is -0.0317.

For the target TTC39C C517 (UniProt Q8N584), the “log2 mean competition ratio” value stood at 0.0856.

As to TRMT11 C5 (UniProt Q7Z4G4), the “log2 mean competition ratio” value is -0.38.

As for TUT4 C746 (UniProt Q5TAX3), the “log2 mean competition ratio” value came out at 0.0563.

Regarding UACA C1258 (UniProt Q9BZF9), the “log2 mean competition ratio” value amounted to 0.303.

For TUT4 C20 (UniProt Q5TAX3), the “log2 mean competition ratio” value was -0.201.

With TWF2 C275 (UniProt Q6IBS0), the “log2 mean competition ratio” value amounted to 0.0457.

Turning to UBE3C C158 (UniProt Q15386), the “log2 mean competition ratio” value was found to be 0.111.

With “TSPY9;TSPY2;TSPY3;TSPY4;TSPY8;TSPY10;TSPY1 C283;(C277);(C277);(C283);(C277);(C277);(C277)”, the “log2 mean competition ratio” value is 0.0674.

UBE2O C370: the “log2 mean competition ratio” value was -0.0266.

Turning to TTK C295 (UniProt P33981), the “log2 mean competition ratio” value was -0.0135.

Consider TXNRD2 C54 (UniProt Q9NNW7), for which the “log2 mean competition ratio” value is -0.101.

For the target TTC7A C337 (UniProt Q9ULT0), the “log2 mean competition ratio” value is -0.0956.

As for TXNDC9 C94 (UniProt O14530), the “log2 mean competition ratio” value is -0.0793.

TTC37 C1031 (UniProt Q6PGP7): the “log2 mean competition ratio” value was -0.0867.

Take TRRAP C420 (UniProt Q9Y4A5): the “log2 mean competition ratio” value was 0.0482.

Consider TRRAP C2106 (UniProt Q9Y4A5), for which the “log2 mean competition ratio” value worked out at 0.0336.

Consider TXNDC16 C821 (UniProt Q9P2K2), for which the “log2 mean competition ratio” value is -0.0179.

Consider TTI2 C484 (UniProt Q6NXR4), for which the “log2 mean competition ratio” value is 0.205.

Take UBR4 C2554 (UniProt Q5T4S7): the “log2 mean competition ratio” value is 0.103.

With TRMT1L C730 (UniProt Q7Z2T5), the “log2 mean competition ratio” value is 0.153.

As for TRRAP C546 (UniProt Q9Y4A5), the “log2 mean competition ratio” value is -0.184.

With UBN1 C711 (UniProt Q9NPG3), the “log2 mean competition ratio” value is -0.0895.

In the case of TRRAP C2876 (UniProt Q9Y4A5), the “log2 mean competition ratio” value is -0.103.

Take TTC37 C715 (UniProt Q6PGP7): the “log2 mean competition ratio” value amounted to 0.0553.

Take TTC4 C174 (UniProt O95801): the “log2 mean competition ratio” value amounted to 0.175.

On to TTC30A C93, for which the “log2 mean competition ratio” value is -0.336.

Turning to TRMT44 C53 (UniProt Q8IYL2), the “log2 mean competition ratio” value is -0.213.

For UBR1 C251 (UniProt Q8IWV7), the “log2 mean competition ratio” value was -0.145.

For the target TUBGCP6 C598 (UniProt Q96RT7), the “log2 mean competition ratio” value was 0.329.

In the case of TTC28 C2077 (UniProt Q96AY4), the “log2 mean competition ratio” value worked out at 0.342.

For TRMT44 C194 (UniProt Q8IYL2), the “log2 mean competition ratio” value is 0.126.

In the case of TRMT1 C614 (UniProt Q9NXH9), the “log2 mean competition ratio” value amounted to 0.015.

For TUT7 C775 (UniProt Q5VYS8), the “log2 mean competition ratio” value was -0.0906.

With TUBB4B C354 (UniProt P68371), the “log2 mean competition ratio” value is -0.103.

Regarding TTC5 C29 (UniProt Q8N0Z6), the “log2 mean competition ratio” value is -0.154.

Compound in another assay: ClCC(=O)N[C@H]1CCCc2ccccc12
The description is as above. The note with it: 50 µM; treatment time: 4 h; cell line lysate: HEK293T. Here is the method: as §1
As to TUT7 C343 (UniProt Q5VYS8), the “log2 mean competition ratio” value was determined as 0.424.

Regarding UBN2 C515 (UniProt Q6ZU65), the “log2 mean competition ratio” value amounted to 0.246.

For the target TTC39C C517 (UniProt Q8N584), the “log2 mean competition ratio” value is -0.0716.

Turning to TRMT11 C5 (UniProt Q7Z4G4), the “log2 mean competition ratio” value was determined as 0.496.

For the target TUT4 C746 (UniProt Q5TAX3), the “log2 mean competition ratio” value stood at 0.198.

For UACA C1258 (UniProt Q9BZF9), the “log2 mean competition ratio” value was -0.77.

For TUT4 C20 (UniProt Q5TAX3), the “log2 mean competition ratio” value came out at 0.153.

On to TWF2 C275 (UniProt Q6IBS0), for which the “log2 mean competition ratio” value was determined as 0.255.

Turning to UBE3C C158 (UniProt Q15386), the “log2 mean competition ratio” value was found to be 0.392.

Take “TSPY9;TSPY2;TSPY3;TSPY4;TSPY8;TSPY10;TSPY1 C283;(C277);(C277);(C283);(C277);(C277);(C277)”: the “log2 mean competition ratio” value came to 0.377.

In the case of UBE2O C370, the “log2 mean competition ratio” value was determined as 0.136.

On to TTK C295 (UniProt P33981), for which the “log2 mean competition ratio” value stood at 0.086.

In the case of TXNRD2 C54 (UniProt Q9NNW7), the “log2 mean competition ratio” value is -0.161.

For the target TTC7A C337 (UniProt Q9ULT0), the “log2 mean competition ratio” value turned out to be 0.00511.

In the case of TXNDC9 C94 (UniProt O14530), the “log2 mean competition ratio” value is -0.275.

With TTC37 C1031 (UniProt Q6PGP7), the “log2 mean competition ratio” value was -0.367.

As to TRRAP C420 (UniProt Q9Y4A5), the “log2 mean competition ratio” value turned out to be 0.94.

For TRRAP C2106 (UniProt Q9Y4A5), the “log2 mean competition ratio” value turned out to be 0.0834.

TXNDC16 C821 (UniProt Q9P2K2): the “log2 mean competition ratio” value was -0.0381.

Take TTI2 C484 (UniProt Q6NXR4): the “log2 mean competition ratio” value is -0.0307.

Turning to UBR4 C2554 (UniProt Q5T4S7), the “log2 mean competition ratio” value stood at 0.0495.

With TRMT1L C730 (UniProt Q7Z2T5), the “log2 mean competition ratio” value amounted to 0.00346.

Consider TRRAP C546 (UniProt Q9Y4A5), for which the “log2 mean competition ratio” value was -0.0649.

On to UBN1 C711 (UniProt Q9NPG3), for which the “log2 mean competition ratio” value was -0.0918.

As for TRRAP C2876 (UniProt Q9Y4A5), the “log2 mean competition ratio” value is -0.144.

As for TTC37 C715 (UniProt Q6PGP7), the “log2 mean competition ratio” value was -0.0583.

TTC4 C174 (UniProt O95801): the “log2 mean competition ratio” value was found to be 0.282.

With TTC30A C93, the “log2 mean competition ratio” value came to 0.526.

Turning to TRMT44 C53 (UniProt Q8IYL2), the “log2 mean competition ratio” value was -0.108.

Regarding UBR1 C251 (UniProt Q8IWV7), the “log2 mean competition ratio” value is -0.424.

In the case of TUBGCP6 C598 (UniProt Q96RT7), the “log2 mean competition ratio” value is -0.193.

As for TTC28 C2077 (UniProt Q96AY4), the “log2 mean competition ratio” value is -0.054.

Regarding TRMT44 C194 (UniProt Q8IYL2), the “log2 mean competition ratio” value is 0.266.

For TRMT1 C614 (UniProt Q9NXH9), the “log2 mean competition ratio” value is -0.216.

As to TUT7 C775 (UniProt Q5VYS8), the “log2 mean competition ratio” value is -0.0394.

Consider TUBB4B C354 (UniProt P68371), for which the “log2 mean competition ratio” value was found to be 0.138.

With TTC5 C29 (UniProt Q8N0Z6), the “log2 mean competition ratio” value is -0.651.

The record behind these values is the supplement of paper PMC11732987, “Enantioselective OTUD7B fragment discovery through chemoproteomics screening and high-throughput optimisation” (Communications Chemistry, 2025).
